According to patent publication US20240425876A1 (CHIGENOVO, published 2024):
No constants are given. Whether binding was seen depends on the method and setting. In cells and extracts the contact can be indirect. Some results given as binding are weak or reduced against the parent protein; the word gives no strength. Sequences can lack the tags named with a protein.

T1: C-terminal truncated version (aa 1348-2273) of ABCA4 with a Flag tag at its C-terminus (human) (UniProt P78363)
T1 sequence: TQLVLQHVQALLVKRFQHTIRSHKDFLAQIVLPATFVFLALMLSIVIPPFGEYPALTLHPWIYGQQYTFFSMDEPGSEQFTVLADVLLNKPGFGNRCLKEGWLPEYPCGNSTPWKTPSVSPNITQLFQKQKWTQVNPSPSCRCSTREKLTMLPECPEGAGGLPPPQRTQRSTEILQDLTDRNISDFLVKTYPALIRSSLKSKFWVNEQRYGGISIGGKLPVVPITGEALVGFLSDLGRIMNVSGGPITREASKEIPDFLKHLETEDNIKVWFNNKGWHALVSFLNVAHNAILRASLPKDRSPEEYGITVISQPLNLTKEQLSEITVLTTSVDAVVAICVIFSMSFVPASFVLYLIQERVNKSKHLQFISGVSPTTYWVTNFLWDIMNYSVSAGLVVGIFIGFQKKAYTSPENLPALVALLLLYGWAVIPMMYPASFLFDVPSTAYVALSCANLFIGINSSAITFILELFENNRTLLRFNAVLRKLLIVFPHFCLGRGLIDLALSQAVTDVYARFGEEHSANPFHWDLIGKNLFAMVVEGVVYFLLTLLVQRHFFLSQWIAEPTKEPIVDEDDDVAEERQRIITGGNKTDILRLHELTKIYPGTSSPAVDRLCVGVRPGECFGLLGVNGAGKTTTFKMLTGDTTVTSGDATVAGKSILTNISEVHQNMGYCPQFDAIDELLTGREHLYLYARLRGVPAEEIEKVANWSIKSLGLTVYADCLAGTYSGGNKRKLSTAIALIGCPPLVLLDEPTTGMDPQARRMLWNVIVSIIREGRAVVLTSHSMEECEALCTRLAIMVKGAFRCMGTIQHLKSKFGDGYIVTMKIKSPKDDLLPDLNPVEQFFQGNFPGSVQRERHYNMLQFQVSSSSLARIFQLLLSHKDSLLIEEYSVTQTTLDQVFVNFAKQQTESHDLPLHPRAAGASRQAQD

B1: N-terminal truncated version (aa 1-1347) of ABCA4 with an HA tag at its C-terminus (other)
chain: MGFVRQIQLLLWKNWTLRKRQKIRFVVELVWPLSLFLVLIWLRNANPLYSHHECHFPNKAMPSAGMLPWLQGIFCNVNNPCFQSPTPGESPGIVSNYNNSILARVYRDFQELLMNAPESQHLGRIWTELHILSQFMDTLRTHPERIAGRGIRIRDILKDEETLTLFLIKNIGLSDSVVYLLINSQVRPEQFAHGVPDLALKDIACSEALLERFIIFSQRRGAKTVRYALCSLSQGTLQWIEDTLYANVDFFKLFRVLPTLLDSRSQGINLRSWGGILSDMSPRIQEFIHRPSMQDLLWVTRPLMQNGGPETFTKLMGILSDLLCGYPEGGGSRVLSFNWYEDNNYKAFLGIDSTRKDPIYSYDRRTTSFCNALIQSLESNPLTKIAWRAAKPLLMGKILYTPDSPAARRILKNANSTFEELEHVRKLVKAWEEVGPQIWYFFDNSTQMNMIRDTLGNPTVKDFLNRQLGEEGITAEAILNFLYKGPRESQADDMANFDWRDIFNITDRTLRLVNQYLECLVLDKFESYNDETQLTQRALSLLEENMFWAGVVFPDMYPWTSSLPPHVKYKIRMDIDVVEKTNKIKDRYWDSGPRADPVEDFRYIWGGFAYLQDMVEQGITRSQVQAEAPVGIYLQQMPYPCFVDDSFMIILNRCFPIFMVLAWIYSVSMTVKSIVLEKELRLKETLKNQGVSNAVIWCTWFLDSFSIMSMSIFLLTIFIMHGRILHYSDPFILFLFLLAFSTATIMLCFLLSTFFSKASLAAACSGVIYFTLYLPHILCFAWQDRMTAELKKAVSLLSPVAFGFGTEYLVRFEEQGLGLQWSNIGNSPTEGDEFSFLLSMQMMLLDAAVYGLLAWYLDQVFPGDYGTPLPWYFLLQESYWLGGEGCSTREERALEKTEPLTEETEDPEHPEGIHDSFFEREHPGWVPGVCVKNLVKIFEPCGRPAVDRLNITFYENQITAFLGHNGAGKTTTLSILTGLLPPTSGTVLVGGRDIETSLDAVRQSLGMCPQHNILFHHLTVAEHMLFYAQLKGKSQEEAQLEMEAMLEDTGLHHKRNEEAQDLSGGMQRKLSVAIAFVGDAKVVILDEPTSGVDPYSRRSIWDLLLKYRSGRTIIMSTHHMDEADLLGDRIAIIAQGRLYCSGTPLFLKNCFGTGLYLTLVRKMKNIQSQRKGSEGTCSCSSKGFSTTCPAHVDDLTPEQVLDGDVNELMDVVLHHVPEAKLVECIGQELIFLLPNKNFKHRAYASLFRELEETLADLGLSSFGISDTPLEEIFLKVTEDSDSGPLFAGGAQQKRENVNPRHPCLGPREKAGQTPQDSNVCSPGAPAAHPEGQPPPEPECPGPQLNTG
notes: Expressed in HEK293 cells from a codon-optimized CDS; tested in cell lysate; also called N1347; not shown: hemagglutinin (HA) tag linked to the C-terminus
B2: N1220 (aa 1-1220) N-terminal truncated version of ABCA4 with an HA tag at its C-terminus (protein, not shown: small tags and cut ends)
chain: MGFVRQIQLLLWKNWTLRKRQKIRFVVELVWPLSLFLVLIWLRNANPLYSHHECHFPNKAMPSAGMLPWLQGIFCNVNNPCFQSPTPGESPGIVSNYNNSILARVYRDFQELLMNAPESQHLGRIWTELHILSQFMDTLRTHPERIAGRGIRIRDILKDEETLTLFLIKNIGLSDSVVYLLINSQVRPEQFAHGVPDLALKDIACSEALLERFIIFSQRRGAKTVRYALCSLSQGTLQWIEDTLYANVDFFKLFRVLPTLLDSRSQGINLRSWGGILSDMSPRIQEFIHRPSMQDLLWVTRPLMQNGGPETFTKLMGILSDLLCGYPEGGGSRVLSFNWYEDNNYKAFLGIDSTRKDPIYSYDRRTTSFCNALIQSLESNPLTKIAWRAAKPLLMGKILYTPDSPAARRILKNANSTFEELEHVRKLVKAWEEVGPQIWYFFDNSTQMNMIRDTLGNPTVKDFLNRQLGEEGITAEAILNFLYKGPRESQADDMANFDWRDIFNITDRTLRLVNQYLECLVLDKFESYNDETQLTQRALSLLEENMFWAGVVFPDMYPWTSSLPPHVKYKIRMDIDVVEKTNKIKDRYWDSGPRADPVEDFRYIWGGFAYLQDMVEQGITRSQVQAEAPVGIYLQQMPYPCFVDDSFMIILNRCFPIFMVLAWIYSVSMTVKSIVLEKELRLKETLKNQGVSNAVIWCTWFLDSFSIMSMSIFLLTIFIMHGRILHYSDPFILFLFLLAFSTATIMLCFLLSTFFSKASLAAACSGVIYFTLYLPHILCFAWQDRMTAELKKAVSLLSPVAFGFGTEYLVRFEEQGLGLQWSNIGNSPTEGDEFSFLLSMQMMLLDAAVYGLLAWYLDQVFPGDYGTPLPWYFLLQESYWLGGEGCSTREERALEKTEPLTEETEDPEHPEGIHDSFFEREHPGWVPGVCVKNLVKIFEPCGRPAVDRLNITFYENQITAFLGHNGAGKTTTLSILTGLLPPTSGTVLVGGRDIETSLDAVRQSLGMCPQHNILFHHLTVAEHMLFYAQLKGKSQEEAQLEMEAMLEDTGLHHKRNEEAQDLSGGMQRKLSVAIAFVGDAKVVILDEPTSGVDPYSRRSIWDLLLKYRSGRTIIMSTHHMDEADLLGDRIAIIAQGRLYCSGTPLFLKNCFGTGLYLTLVRKMKNIQSQRKGSEGTCSCSSKGFSTTCPAHVDDLTPEQVLDGDVNELMDVVLHHVPEAK

Columns and labels:
[1] = target: T1, C-terminal truncated version (aa 1348-2273) of ABCA4 with a Flag tag at its C-terminus (human); test: co-immunoprecipitation: flag antibody beads, HA western blot, HEK293 lysate
[2] = substrate: T2, C* (aa 1-20, 1369-2273) C-terminal truncated version of ABCA4 with a Flag tag at its C-terminus (human) (UniProt P78363); test: as above
T2 sequence: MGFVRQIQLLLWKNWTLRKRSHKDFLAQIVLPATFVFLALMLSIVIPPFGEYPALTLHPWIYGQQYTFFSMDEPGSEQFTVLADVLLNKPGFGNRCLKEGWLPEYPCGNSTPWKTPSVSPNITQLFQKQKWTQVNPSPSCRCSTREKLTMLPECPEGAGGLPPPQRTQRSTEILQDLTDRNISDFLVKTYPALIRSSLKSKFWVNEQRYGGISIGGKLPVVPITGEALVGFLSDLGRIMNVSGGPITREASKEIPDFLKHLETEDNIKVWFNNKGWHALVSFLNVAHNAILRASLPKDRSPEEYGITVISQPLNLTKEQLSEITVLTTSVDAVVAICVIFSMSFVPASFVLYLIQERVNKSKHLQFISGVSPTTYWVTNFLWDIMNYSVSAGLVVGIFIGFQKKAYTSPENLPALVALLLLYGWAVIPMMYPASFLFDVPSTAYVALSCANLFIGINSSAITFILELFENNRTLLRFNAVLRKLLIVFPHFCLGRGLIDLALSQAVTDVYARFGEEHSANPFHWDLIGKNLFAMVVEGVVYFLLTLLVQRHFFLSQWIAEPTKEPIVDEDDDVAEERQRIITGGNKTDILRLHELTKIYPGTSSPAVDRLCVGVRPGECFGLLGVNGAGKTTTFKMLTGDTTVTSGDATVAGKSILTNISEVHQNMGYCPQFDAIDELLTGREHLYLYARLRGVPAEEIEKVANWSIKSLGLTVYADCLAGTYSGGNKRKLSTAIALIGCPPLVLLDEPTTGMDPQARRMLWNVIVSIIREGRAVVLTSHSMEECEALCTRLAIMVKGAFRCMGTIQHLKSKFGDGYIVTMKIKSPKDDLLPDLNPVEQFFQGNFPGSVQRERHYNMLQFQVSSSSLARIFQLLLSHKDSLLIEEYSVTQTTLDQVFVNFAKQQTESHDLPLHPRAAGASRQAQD

Binder | binding [1] | binding [2]
B1 | binds | binds
B2 | binds | binds
